Measured values published in article PMC10376983.
Substitutions are numbered along the chain they refer to. Results are given in words; binding and its absence hold for the method and conditions named. Some entries that bind do so weakly or less than the wild type.

Chains of the proteins cited; added tags and fusions are not shown. Residues count along the entry.
UniProt Q13873, residues 203-504: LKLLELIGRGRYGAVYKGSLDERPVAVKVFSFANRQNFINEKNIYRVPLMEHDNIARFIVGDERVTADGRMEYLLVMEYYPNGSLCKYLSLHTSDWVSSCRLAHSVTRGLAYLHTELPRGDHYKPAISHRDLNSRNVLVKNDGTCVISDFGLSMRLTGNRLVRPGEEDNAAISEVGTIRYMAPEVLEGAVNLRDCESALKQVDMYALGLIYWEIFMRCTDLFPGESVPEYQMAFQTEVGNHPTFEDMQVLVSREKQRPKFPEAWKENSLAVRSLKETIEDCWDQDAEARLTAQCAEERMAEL

Experiments:
Experiment in all cases: native gel or EMSA; native PAGE, Tris-glycine pH 8.3 without SDS, 4% stacking/12% resolving gels; ALK2 kinase forms with or without SUMO-BMPRII fusion protein or BMPRII kinase; both purified
[1] = biological target: T1, ACVR1/ALK2 receptor kinase cytoplasmic domain, Q207D variant (Thr172-Cys509) (UniProt Q04771)
T1 sequence: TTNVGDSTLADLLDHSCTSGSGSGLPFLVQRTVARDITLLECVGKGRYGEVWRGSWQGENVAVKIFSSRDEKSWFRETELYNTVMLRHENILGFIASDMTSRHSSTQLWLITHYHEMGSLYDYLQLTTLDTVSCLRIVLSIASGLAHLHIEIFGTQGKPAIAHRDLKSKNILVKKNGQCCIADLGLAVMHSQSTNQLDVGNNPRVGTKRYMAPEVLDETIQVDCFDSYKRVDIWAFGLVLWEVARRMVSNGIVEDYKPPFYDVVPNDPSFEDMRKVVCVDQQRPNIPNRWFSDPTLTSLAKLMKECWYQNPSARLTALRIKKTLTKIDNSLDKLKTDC

[2] = biological target: T2, ACVR1/ALK2 receptor kinase cytoplasmic domain, R206H mutant (Thr172-Cys509) (UniProt Q04771)
T2 sequence: T1 sequence with R35H, D36Q

[3] = biological target: T3, ACVR1/ALK2 receptor kinase cytoplasmic domain, wild type (Thr172-Cys509) (UniProt Q04771)
T3 sequence: T1 sequence with D36Q

[4] = biological target: T4, ACVR1/ALK2 receptor kinase, 208 Ntrunc (Ile208-Cys509) (UniProt Q04771)
T4 sequence: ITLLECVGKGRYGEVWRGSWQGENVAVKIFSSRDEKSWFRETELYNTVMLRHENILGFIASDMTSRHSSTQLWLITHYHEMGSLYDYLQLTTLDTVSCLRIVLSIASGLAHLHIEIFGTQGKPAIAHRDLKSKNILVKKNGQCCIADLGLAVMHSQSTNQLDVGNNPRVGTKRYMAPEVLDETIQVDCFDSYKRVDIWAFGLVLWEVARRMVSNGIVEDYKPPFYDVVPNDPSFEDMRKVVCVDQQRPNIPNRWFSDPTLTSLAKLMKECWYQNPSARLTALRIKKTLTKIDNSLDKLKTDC

binding [1] | binding [2] | binding [3] | binding [4] | Substance
binds weakly | binds weakly | binds weakly | binds weakly | BMPRII kinase domain (SUMO fusion partner removed) (from UniProt Q13873 203-504) (domain or fragment)
binds weakly | binds weakly | binds weakly | binds weakly | SUMO-BMPRII kinase fusion protein (8xHis-SUMO-TEV-BMPRII kinase domain) (from UniProt Q13873 203-504) (domain or fragment)
